{"source": "PubChem BioAssay AID504793 | Drosophila RNAi Screening Center – 2011", "test": "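Knock-downs allowing continued mitosis even though DNA is damaged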 (primary screen)", "system": "Drosophila S2R+ cells", "reagents": "long dsRNA against Drosophila genes, about 0.25 µg dsRNA per well", "time to read-out": "4 days of dsRNA, then 4 hours of drug before read-out", "treatment": "doxorubicin 0.5 µM for 4 hours to cause double-strand breaks, in cells also given a low, harmless dose of dsRNA against nbs to sensitise the assay", "read-out": "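Mitotic index as the number of phospho-histone H3-positive cells in each well following doxorubicin, given as raw counts without normalisation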", "scale": "mitotic cells: higher = more cells in mitosis, weaker G2 arrest", "call rule": "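Genes are called active only when high mitotic counts were reproduced with independent dsRNAs and mitosis was checked for delay without damage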", "calls": "active = confirmed in follow-up tests; inactive = not confirmed", "note": "In all, the deposit lists about 23,000 reagents; shown is an unselected part of those with a known target gene and a result. In the full data, 62 (0.27%) got an active call. 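Calls come from follow-up tests whose scores are not deposited, so confirmed genes may have low counts here; counts are not normalised per plate.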 Raw values are not corrected between plates. The numbers tell different reagents against one gene apart."}
{"gene knocked down":"Prosbeta5R1","reagent":1,"mitotic cells, replicate 1":7,"Outcome":"inactive"}
{"gene knocked down":"Prosbeta5R1","reagent":2,"mitotic cells, replicate 1":10,"Outcome":"inactive"}
{"gene knocked down":"CG12617","reagent":1,"mitotic cells, replicate 1":6,"Outcome":"inactive"}
{"gene knocked down":"CG12617","reagent":2,"mitotic cells, replicate 1":8,"Outcome":"inactive"}
{"gene knocked down":"CG14269","reagent":1,"mitotic cells, replicate 1":3,"Outcome":"inactive"}
{"gene knocked down":"Dbp45A","reagent":1,"mitotic cells, replicate 1":7,"Outcome":"inactive"}
{"gene knocked down":"Cdc14","reagent":1,"mitotic cells, replicate 1":14,"Outcome":"inactive"}
{"gene knocked down":"Cdc14","reagent":2,"mitotic cells, replicate 1":7,"Outcome":"inactive"}
{"gene knocked down":"CG11550","reagent":1,"mitotic cells, replicate 1":14,"Outcome":"inactive"}
{"gene knocked down":"w","reagent":1,"mitotic cells, replicate 1":8,"Outcome":"inactive"}
{"gene knocked down":"w","reagent":2,"mitotic cells, replicate 1":5,"Outcome":"inactive"}
{"gene knocked down":"S-Lap5","reagent":1,"mitotic cells, replicate 1":5,"Outcome":"inactive"}
{"gene knocked down":"S-Lap5","reagent":2,"mitotic cells, replicate 1":9,"Outcome":"inactive"}
{"gene knocked down":"Iris","reagent":1,"mitotic cells, replicate 1":7,"Outcome":"inactive"}
{"gene knocked down":"CR42532","reagent":1,"mitotic cells, replicate 1":6,"Outcome":"inactive"}
{"gene knocked down":"Tango1","reagent":1,"mitotic cells, replicate 1":9,"Outcome":"inactive"}
{"gene knocked down":"Tango1","reagent":2,"mitotic cells, replicate 1":8,"Outcome":"inactive"}
{"gene knocked down":"CG3698","reagent":1,"mitotic cells, replicate 1":7,"Outcome":"inactive"}
{"gene knocked down":"CG3698","reagent":2,"mitotic cells, replicate 1":2,"Outcome":"inactive"}
{"gene knocked down":"IntS2","reagent":1,"mitotic cells, replicate 1":9,"Outcome":"inactive"}
{"gene knocked down":"CG15036","reagent":1,"mitotic cells, replicate 1":5,"Outcome":"inactive"}
{"gene knocked down":"CG15036","reagent":2,"mitotic cells, replicate 1":2,"Outcome":"inactive"}
{"gene knocked down":"Acbp1","reagent":1,"mitotic cells, replicate 1":3,"Outcome":"inactive"}
{"gene knocked down":"Acbp1","reagent":2,"mitotic cells, replicate 1":7,"Outcome":"inactive"}
{"gene knocked down":"CG9717","reagent":1,"mitotic cells, replicate 1":4,"Outcome":"inactive"}
{"gene knocked down":"FMRFa","reagent":1,"mitotic cells, replicate 1":5,"Outcome":"inactive"}
{"gene knocked down":"SmydA-9","reagent":1,"mitotic cells, replicate 1":10,"Outcome":"inactive"}
{"gene knocked down":"CG17490","reagent":1,"mitotic cells, replicate 1":11,"Outcome":"inactive"}
{"gene knocked down":"CG17490","reagent":2,"mitotic cells, replicate 1":4,"Outcome":"inactive"}
{"gene knocked down":"CG5721","reagent":1,"mitotic cells, replicate 1":4,"Outcome":"inactive"}
{"gene knocked down":"L2HGDH","reagent":1,"mitotic cells, replicate 1":9,"Outcome":"inactive"}
{"gene knocked down":"L2HGDH","reagent":2,"mitotic cells, replicate 1":4,"Outcome":"inactive"}
{"gene knocked down":"CG32643","reagent":1,"mitotic cells, replicate 1":8,"Outcome":"inactive"}
{"gene knocked down":"CG2852","reagent":1,"mitotic cells, replicate 1":5,"Outcome":"inactive"}
{"gene knocked down":"CG2852","reagent":2,"mitotic cells, replicate 1":6,"Outcome":"inactive"}
{"gene knocked down":"CG13390","reagent":1,"mitotic cells, replicate 1":8,"Outcome":"inactive"}
{"gene knocked down":"CG13390","reagent":2,"mitotic cells, replicate 1":4,"Outcome":"inactive"}
{"gene knocked down":"CG13047","reagent":1,"mitotic cells, replicate 1":2,"Outcome":"inactive"}
{"gene knocked down":"CG13047","reagent":2,"mitotic cells, replicate 1":5,"Outcome":"inactive"}
{"gene knocked down":"galla-2","reagent":1,"mitotic cells, replicate 1":17,"Outcome":"inactive"}
{"gene knocked down":"galla-2","reagent":2,"mitotic cells, replicate 1":7,"Outcome":"inactive"}
{"gene knocked down":"Gr59a","reagent":1,"mitotic cells, replicate 1":13,"Outcome":"inactive"}
{"gene knocked down":"Rab23","reagent":1,"mitotic cells, replicate 1":8,"Outcome":"inactive"}
{"gene knocked down":"Rab23","reagent":2,"mitotic cells, replicate 1":7,"Outcome":"inactive"}

2 successive reagents already listed:
{"gene knocked down":"Cdc14","reagent":1,"mitotic cells, replicate 1":14,"Outcome":"inactive"}
{"gene knocked down":"Cdc14","reagent":2,"mitotic cells, replicate 1":7,"Outcome":"inactive"}
